Test results taken from patent US6133273A, “Pyrazolopyrimidine-2,4-dione sulfonamides” (American Home Products Corporation, priority 1999, dated 2000).
For at least one compound, name, drawing or mass did not settle the structure.

Tested on: PDE-IV
Assay: Inhibition of Phosphodiesterase IV (PDE-IV) isolated from human U937 cells
Assay type: biochemical
Conditions: U937 cell PDE-IV, 1 μM [3H]-cAMP, 37° C., test compound 0.001 μM to 10 μM
Experimental: This assay was used to biochemically assess the ability of a test compound to inhibit PDE-IV isolated from a U937 cell line, where PDE-IV refers to the cGMP-insensitive, cAMP-selective PDE.
Cell Culture: U937 cells were grown in RPMI 1640 medium supplemented with 10% heat-inactivated fetal calf serum and Penicillin/Streptomycin (100 units/100 μg per mL) in a humidified 5% CO2 atmosphere at 37° C. Starter cells were maintained in continuous logarithmic growth by seeding them in 75 cm^2 vented tissue culture flasks at a concentration of 3×10^4 cells/mL and passing them every 3-4 days when the cells reached approximately 8×10^5 cells/mL. For experiments, 3-4 day starter cells were seeded in 225 cm^2 flasks at 1×10^5 cells/mL and harvested 3-4 days later at approx. 6×10^5 cells/mL. […]
PDE assay: PDE activity was measured using a modification of the radioisotope procedure previously described by Thompson et al. (Thompson, W. J., Terasaki, W. L., Epstein, P. M. and Strada, S. J. Adv, Cyclic Nucleotide Res. 1979, 10, 69). […] Enzyme activity was determined at 37° C. […] Each column's eluate was collected in a 20 mL scintillation vial containing 10 mL aquasol-2 and counted by scintillation spectrophotometry. [^3 H]-adenosine or [^3 H]-guanosine recovery was corrected for background DPM determined in the absence of enzyme. […]

SMILES: CCCCn1c(=O)c2nn(S(=O)(=O)CCCCl)cc2n(CCCC)c1=O [Example 1, 4,6-Dibutyl-3-chloropropanesulfonyl-2,4-dihydro-pyrazolo[4,3-d]pyrimidine-5,7-dione]
- % Inhibition of PDE IV (normalized to rolipram): 31%
